# System: Sprague-Dawley rats
# Assay: Cyclosporine-induced nephrotoxicity
# Format: in vivo
# Details: second study, control 27.6±1.9
# Text: B. Cyclosporine-Induced Nephrotoxicity: This experiment as performed to ascertain if EX-2 can mitigate the reduction in glomerular filtration rate (GFR) and renal blood flow, as well as the dysfunction in fluid and electrolyte homeostasis induced by immunosuppressive treatment with cyclosporine A.
# In the first study, male Sprague-Dawley rats (n=43) with a weight range of 240-290 g at the initiation of the cyclosporine A (CsA) treatment were divided into 4 weight matched groups. […] Renal blood flow was determined by the inulin extraction technique. […]
# In the second study, male Sprague-Dawley rats (n=31) with a weight range of 240-290 g at the time of initiation of the cyclosporine treatment were divided into 4 weight-matched groups. […] Renal hemodynamics were determined and extracellular fluid volumes were also assessed.
# In the second study, where extracellular fluid volumes (ECF) were measured, there were no differences in ECF among control and treatment groups (27.6±1.9 in control, 27.5±1.7 in CsA and vehicle, 26.2±0.9 in CsA+200 μg/kg EX-2, and 25.7±1.4% in CsA+500 μg/kg EX-2). […]
substance,measurement,setting,value
Ac-Nle-Gln-His-(D)Phe-Arg-(D)Trp-Gly-NH2 [EX-2],Extracellular fluid volume (ECF),CsA 30 mg/kg SC + 200 μg/kg EX-2 twice daily,26.2±0.9%
same,Extracellular fluid volume (ECF),CsA 30 mg/kg SC + 500 μg/kg EX-2 twice daily,25.7±1.4%
